Some entries share one result that the patent states for a list of compounds. For at least one compound, name, drawing or mass did not settle the structure.
Tests used:
Type in all cases: cell-based
[1] = system: Streptococcus pneumoniae 1629; test: conventional MIC assay, Streptococcus pneumoniae 1629; conditions: against Streptococcus pneumoniae 1629
Description: (§1) Compounds of the present invention were assessed for anti-bacterial activity in a conventional MIC assay against a range of pathogenic organisms.

[2] = system: Haemophilus influenzae Q1; test: conventional MIC assay, Haemophilus influenzae Q1; conditions: against Haemophilus influenzae Q1
Description: as §1

[3] = system: Moraxella catarrhalis 1502; test: conventional MIC assay, Moraxella catarrhalis 1502; conditions: against Moraxella catarrhalis 1502
Description: as §1

[4] = system: Staphylococcus aureus Oxford; test: conventional MIC assay, Staphylococcus aureus Oxford; conditions: against Staphylococcus aureus Oxford
Description: as §1

Measured: MIC

C=C[C@]1(C)C[C@@H](OC(=O)NC(=O)O[C@@H]2CO[C@H]3[C@H]2OC[C@@H]3N=[N+]=[N-])[C@]2(C)[C@H](C)CC[C@]3(CCC(=O)[C@H]32)[C@@H](C)[C@@H]1O [Example 75, Mutilin 14-[N-(((3R,3aR,6S,6aR)-6-azido-hexahydrofuro[3,2-b]furan-3-yl)oxycarbonyl)]carbamate]
≤ 4 µg/mL: all assays above

C=C[C@]1(C)C[C@@H](OC(=O)NC(=O)OCCNC(=O)C(=O)NCCO)[C@]2(C)[C@H](C)CC[C@]3(CCC(=O)[C@H]32)[C@@H](C)[C@@H]1O [Example 14]
≤ 4 µg/mL: all assays above

C=C[C@]1(C)C[C@@H](OC(=O)NC(=O)OCC(F)(F)CO)[C@]2(C)[C@H](C)CC[C@]3(CCC(=O)[C@H]32)[C@@H](C)[C@@H]1O [Example 21]
≤ 4 µg/mL: all assays above

C=C[C@]1(C)C[C@@H](OC(=O)NC(=O)OCc2cnc(C(N)=O)cn2)[C@]2(C)[C@H](C)CC[C@]3(CCC(=O)[C@H]32)[C@@H](C)[C@@H]1O [Example 35]
≤ 4 µg/mL: all assays above

C=C[C@]1(C)C[C@@H](OC(=O)NC(=O)OC2(CN(C)C)CC2)[C@]2(C)[C@H](C)CC[C@]3(CCC(=O)[C@H]32)[C@@H](C)[C@@H]1O [Example 83]
≤ 4 µg/mL: all assays above

C=C[C@]1(C)C[C@@H](OC(=O)NC(=O)OCCN(C)C)[C@]2(C)[C@H](C)CC[C@]3(CCC(=O)[C@H]32)[C@@H](C)[C@@H]1O [Example 58]
≤ 4 µg/mL: all assays above

C=C[C@]1(C)C[C@@H](OC(=O)NC(=O)OCCCNC(=O)C(N)=O)[C@]2(C)[C@H](C)CC[C@]3(CCC(=O)[C@H]32)[C@@H](C)[C@@H]1O [Example 15]
≤ 4 µg/mL: all assays above

C=C[C@]1(C)C[C@@H](OC(=O)NC(=O)O[C@H]2CCN[C@@H]2CO)[C@]2(C)[C@H](C)CC[C@]3(CCC(=O)[C@H]32)[C@@H](C)[C@@H]1O [Example 51]
≤ 4 µg/mL: all assays above

C=C[C@]1(C)C[C@@H](OC(=O)NC(=O)OCCN2CCC(C(N)=O)CC2)[C@]2(C)[C@H](C)CC[C@]3(CCC(=O)[C@H]32)[C@@H](C)[C@@H]1O [Example 68]
≤ 4 µg/mL: all assays above

C=CC1(C)CC(OC(=O)NC(=O)OC2CCS(=O)(=O)C2)C2(C)C(C)CCC3(CCC(=O)C32)C(C)C1O (mixture of isomers) [Example 23]
≤ 4 µg/mL: all assays above

C=CC1(C)CC(OC(=O)NC(=O)OCC2CN(S(N)(=O)=O)CCO2)C2(C)C(C)CCC3(CCC(=O)C32)C(C)C1O (mixture of isomers) [Example 108]
≤ 4 µg/mL: all assays above

C=C[C@]1(C)C[C@@H](OC(=O)NC(=O)OC(C)(C)C(=O)NC)[C@]2(C)[C@H](C)CC[C@]3(CCC(=O)[C@H]32)[C@@H](C)[C@@H]1O [Example 99]
≤ 4 µg/mL: all assays above

C=C[C@]1(C)C[C@@H](OC(=O)NC(=O)O[C@H](C)CN(C)C)[C@]2(C)[C@H](C)CC[C@]3(CCC(=O)[C@H]32)[C@@H](C)[C@@H]1O [Example 61]
≤ 4 µg/mL: all assays above

C=CC1(C)CC(OC(=O)NC(=O)OCC2CN(C(N)=O)CCO2)C2(C)C(C)CCC3(CCC(=O)C32)C(C)C1O (mixture of isomers) [Example 109]
≤ 4 µg/mL: all assays above

C=CC1(C)CC(OC(=O)NC(=O)OC2CNOC2)C2(C)C(C)CCC3(CCC(=O)C32)C(C)C1O (mixture of isomers) [Example 56]
≤ 4 µg/mL: all assays above

C=CC1(C)CC(OC(=O)NC(=O)OCC(O)CN(C)C)C2(C)C(C)CCC3(CCC(=O)C32)C(C)C1O (centres unmarked) [Example 63, Mutilin 14-[N-(3-dimethylamino-2-hydroxyprop-1-yloxycarbonyl)]carbamate]
≤ 4 µg/mL: all assays above

C=C[C@]1(C)C[C@@H](OC(=O)NC(=O)OCCOC(N)=O)[C@]2(C)[C@H](C)CC[C@]3(CCC(=O)[C@H]32)[C@@H](C)[C@@H]1O [Example 16, Mutilin 14-[N-(2 carbamoyloxyethoxycarbonyl)]carbamate]
≤ 4 µg/mL: all assays above

C=C[C@]1(C)C[C@@H](OC(=O)NC(=O)O[C@H]2COC[C@@H]2N)[C@]2(C)[C@H](C)CC[C@]3(CCC(=O)[C@H]32)[C@@H](C)[C@@H]1O [Example 124]
≤ 4 µg/mL: all assays above

C=C[C@]1(C)C[C@@H](OC(=O)NC(=O)OCc2nccnc2C(N)=O)[C@]2(C)[C@H](C)CC[C@]3(CCC(=O)[C@H]32)[C@@H](C)[C@@H]1O [Example 36]
≤ 4 µg/mL: all assays above

C=C[C@]1(C)C[C@@H](OC(=O)NC(=O)OCCN(CCO)CCO)[C@]2(C)[C@H](C)CC[C@]3(CCC(=O)[C@H]32)[C@@H](C)[C@@H]1O [Example 60]
≤ 4 µg/mL: all assays above

C=C[C@]1(C)C[C@@H](OC(=O)NC(=O)OCC(C)(CO)CO)[C@]2(C)[C@H](C)CC[C@]3(CCC(=O)[C@H]32)[C@@H](C)[C@@H]1O [Example 69]
≤ 4 µg/mL: all assays above

C=C[C@]1(C)C[C@@H](OC(=O)NC(=O)OCCN2C(=O)CCC2=O)[C@]2(C)[C@H](C)CC[C@]3(CCC(=O)[C@H]32)[C@@H](C)[C@@H]1O [Example 88]
≤ 4 µg/mL: all assays above

C=C[C@]1(C)C[C@@H](OC(=O)NC(=O)OCc2cc(C)on2)[C@]2(C)[C@H](C)CC[C@]3(CCC(=O)[C@H]32)[C@@H](C)[C@@H]1O [Example 31]
≤ 4 µg/mL: all assays above

Source: patent US7160907B2, “Pleuromutilin derivatives” (SmithKline Beecham P.L.C., priority 2000, dated 2007)
